The target of test [1] is HLA-DRB1 (endogenous, human melanoma cell lines) (human). Kind of test: lectin pulldown and immunoblot, melanoma cell lysates. On the technique in general: A western blot detects proteins with antibodies after separation by electrophoresis.
The target of test [2] is V5-tagged HLA-DRB1 N48G (human). The experiment in a line: lectin pulldown (AAL agarose) and immunoblot, WM793 lysates.
In test [3] the target is V5-tagged HLA-DRB1 T129A (human). The description is as above.
In test [4] the target is V5-tagged wild-type HLA-DRB1 (human). Described as above.
For test [5] the target is unchanged. Kind of test: V5 immunoprecipitation and blot probed with AAL, WM793 cells.

The source of these data is patent publication US20260108547A1, “LEVERAGING L-FUCOSE-MEDIATED SIGNALING TO INDUCE MONOCYTE-DERIVED DENDRITIC CELL POLARIZATION” (H. LEE MOFFITT CANCER CENTER AND RESEARCH INSTITUTE, INC., priority 2022, published 2026).

These are yes or no findings as the source states them, for the method shown. For some assays here: Binding calls can cover weak binding; strength is not graded here. For some assays here: Binding seen in cells or lysates may run through a third protein.

B1: Aleuria aurantia lectin (AAL) (protein, UniProt P18891 2-313, looked up)
chain: PTEFLYTSKIAAISWAATGGRQQRVYFQDLNGKIREAQRGGDNPWTGGSSQNVIGEAKLFSPLAAVTWKSAQGIQIRVYCVNKDNILSEFVYDGSKWITGQLGSVGVKVGSNSKLAALQWGGSESAPPNIRVYYQKSNGSGSSIHEYVWSGKWTAGASFGSTVPGTGIGATAIGPGRLRIYYQATDNKIREHCWDSNSWYVGGFSASASAGVSIAAISWGSTPNIRVYWQKGREELYEAAYGGSWNTPGQIKDASRPTPSLPDTFIAANSSGNIDISVFFQASGVSLQQWQWISGKGWSIGAVVPTGTPAGW
With B1, the binding result was “binds” in test [1]; “no binding” in test [2]; “binds” in test [3]; “binds” in test [4]; “binds” in test [5].
